Experiment: Ninhydrin test for L-cysteine grafted through the catechol linker
Format: physicochemical
Details: then L-cysteine in 10× PBS overnight, 90° C. 10 minutes

## O=C(CI)c1ccc(O)c(O)c1 [4-iodoacetylcatechol, 4-(iodoacetyl)catechol]
Activated glass grafted with linker
  appearance after 1% aqueous ninhydrin treatment: Purple-blue spots appeared
Filter paper grafted with linker
  appearance after 1% aqueous ninhydrin treatment: purple

Reference: US20250000091A1, “GRAFTABLE BIOCIDAL LINKERS AND POLYMERS AND USES THEREOF” (DEBOGY MOLECULAR, INC., priority 2020, published 2025)
